At least one structure is not confirmed: it was looked up by name or label, or the drawing left a doubt.
Tested on: AKT
Assay: AKT inhibition standard coupled enzyme assay
Format: biochemical
Conditions: screened at 30 μM compound, 45 nM AKT, 170 μM ATP; compounds with greater than 50% inhibition titrated
Protocol: Compounds were screened for their ability to inhibit AKT using a standard coupled enzyme assay (Fox et al., Protein Sci., (1998) 7, 2249). Assays were carried out in a mixture of 100 mM HEPES 7.5, 10 mM MgCl2, 25 mM NaCl, 1 mM DTT and 1.5% DMSO. Final substrate concentrations in the assay were 170 μM ATP (Sigma Chemicals) and 200 μM peptide (RPRAATF, American Peptide, Sunnyvale, Calif.). Assays were carried out at 30° C. and 45 nM AKT. Final concentrations of the components of the coupled enzyme system were 2.5 mM phosphoenolpyruvate, 300 μM NADH, 30 μg/ML pyruvate kinase and 10 μg/ml lactate dehydrogenase.
An assay stock buffer solution was prepared containing all of the reagents listed above, with the exception of AKT, DTT, and the test compound of interest. 56 μl of the stock solution was placed in a 384 well plate followed by addition of 1 μl of 2 mM DMSO stock containing the test compound (final compound concentration 30 μM). The plate was preincubated for about 10 minutes at 30° C. and the reaction initiated by addition of 10 μl of enzyme (final concentration 45 nM) and 1 mM DTT. Rates of reaction were obtained using a BioRad Ultramark plate reader (Hercules, Calif.) over a 5 minute read time at 30° C.

SMILES	inhibit AKT
CC(=O)N1CCC[C@H]1C(=O)NCc1ccc(-c2cn[nH]c2-c2c[nH]c(C(=O)NC(CO)c3ccc(F)c(Cl)c3)c2)cc1Cl (stereo partly drawn) [II-3]	inhibit AKT
CC(=O)N1CCC[C@@H]1C(=O)NCc1ccc(-c2cn[nH]c2-c2c[nH]c(C(=O)NC(CO)c3ccc(F)c(Cl)c3)c2)cc1Cl (stereo partly drawn) [II-4]	inhibit AKT
O=C(NCc1ccc(-c2cn[nH]c2-c2c[nH]c(C(=O)N[C@H](CO)c3ccc(F)c(Cl)c3)c2)cc1Cl)O[C@H]1CCOC1 [II-7]	inhibit AKT
